Reference: article PMC3229559

Molecular target: CnA 20-mer peptides of the autoinhibitory domain on the CnA peptide array
Experiment: peptide or protein array; array of immobilized CnA 20-mer peptides (whole of CnA) with 3 amino acids offset on cellulose membrane, overlaid with a biotinylated peptide of the cytoplasmic region of syndecan-4 or its pS179 form overnight at 4°C; detected with anti-biotin-HRP; both purified

| binding | Binder |
| --- | --- |
| binds | RMKKKDEGSYDLGKKPIYKKAPTNEFYA (biotin on the N-terminus) |
| binds weakly | RMKKKDEGSYDLGKKPIYKKAPTNEFYA (phosphoserine at 179 (pS); biotin on the N-terminus) |

These are yes or no findings as the source states them, for the method shown. A result given as binding can be weak or reduced; the word gives no strength.
